# Data taken from the supplement of paper PMC10382679.
# Single values of this set are uncertain.
# B1: Rpb7; numbered along this chain (parent)
# chain: MFFIKDLSLNITLHPSFFGPRMKQYLKTKLLEEVEGSCTGKFGYILCVLDYDNIDIQRGRILPTDGSAEFNVKYRAVVFKPFKGEVVDGTVVSCSQHGFEVQVGPMKVFVTKHLMPQDLTFNAGSNPPSYQSSEDVITIKSRIRVKIEGCISQVSSIHAIGSIKEDYLGAI
# Key:
# [1] = variants of: B1; assay: log2 fold change of mutant abundance, UV-irradiated vs unirradiated; higher = more UV resistant (enriched after UV); conditions: with Saccharomyces cerevisiae rad7Δ rad26Δ; UV dose (J/m2): 10; genetic background: rad7Δ rad26Δ rpb7Δ + plasmid RPB7 library; outgrowth: 10 cell divisions
# [2] = variants of: B1; assay: NOISeq theta enrichment statistic, UV-irradiated vs unirradiated (dimensionless); higher = more UV resistant (enriched after UV); conditions: with Saccharomyces cerevisiae rad7Δ rad26Δ; UV dose (J/m2): 10; genetic background: rad7Δ rad26Δ rpb7Δ + plasmid RPB7 library; outgrowth: 10 cell divisions
Variant,log2 fold change of mutant abundance [1],NOISeq theta enrichment statistic [2]
R142N,0.304,0.16
R142S,-0.193,-0.55
R142T,-0.369,-0.387
R142W,-0.253,-0.193
I143F,-0.396,-0.498
I143H,0.342,0.253
I143K,-0.407,-0.181
I143L,0.0204,0.0303
I143M,0.145,0.251
I143N,-0.0997,-0.153
I143R,0.296,0.207
I143S,0.0033,0.00661
I143T,0.269,0.542
I143V,-0.0155,-0.0673
R144C,-0.221,-0.161
R144E,-0.117,-0.0784
R144G,0.0505,0.0828
R144I,0.0855,0.139
R144K,0.00255,0.00498
R144M,0.911,0.38
R144N,-0.124,-0.0598
R144S,0.108,0.223
R144T,0.22,0.226
R144W,0.166,0.137

Variant,log2 fold change of mutant abundance [1],NOISeq theta enrichment statistic [2]
V145A,-0.143,-0.253
V145D,-0.0989,-0.131
V145E,0.0903,0.062
V145F,0.582,0.735
V145G,-0.0282,-0.0358
V145I,0.3,0.678
V145L,-0.0502,-0.0484
V145S,0.0292,0.0222
K146D,0.684,0.4
K146E,0.126,0.309
K146G,0.583,0.358
K146H,1.68,0.747
K146I,0.0829,0.192
K146L,0.572,0.34
K146M,0.0923,0.0413
K146N,0.014,0.0418
K146Q,0.25,0.344
K146R,0.0842,0.331
K146S,0.64,0.354
K146T,0.118,0.221
K146V,0.157,0.0811
K146Y,-0.715,-0.408
I147F,0.0329,0.0747
I147L,0.155,0.185

Variant,log2 fold change of mutant abundance [1],NOISeq theta enrichment statistic [2]
I147M,-0.151,-0.2
I147N,-0.103,-0.151
I147R,-0.118,-0.0832
I147S,-0.101,-0.147
I147T,-0.245,-0.36
I147V,0.0657,0.163
E148A,0.249,0.387
E148D,0.236,0.599
E148G,-0.0856,-0.188
E148K,-0.177,-0.256
E148Q,-0.565,-0.475
E148V,-0.259,-0.984
E148Y,-0.965,-0.551
G149A,1,1.47
G149C,1.5,3.51
G149D,2.78,3.42
G149E,1.6,0.927
G149R,1.74,2.35
G149S,1.39,3.02
G149V,1.36,1.9
G149Y,1.43,0.717
C150F,-0.514,-0.54
C150G,-0.184,-0.273
C150H,0.633,0.356

Variant,log2 fold change of mutant abundance [1],NOISeq theta enrichment statistic [2]
C150L,-0.237,-0.168
C150N,0.0895,0.0437
C150R,-0.0975,-0.266
C150S,-0.0983,-0.355
C150T,-1.47,-0.689
C150V,-0.511,-0.388
C150W,-0.278,-0.304
C150Y,-0.605,-1.11
I151A,-1.16,-0.554
I151D,0.409,0.186
I151F,-0.531,-0.913
I151L,0.172,0.228
I151M,0.345,0.449
I151N,0.247,0.808
I151S,-0.0715,-0.0879
I151T,-0.0199,-0.0836
I151V,-0.0244,-0.0829
I151Y,0.0605,0.0415
S152C,0.212,1.01
S152D,0.124,0.0816
S152G,-0.0242,-0.0765
S152H,-0.822,-0.395
S152I,-0.0734,-0.127
S152K,-0.539,-0.28

# Full records as entered above.
# I151N is listed as log2 fold change of mutant abundance [1]: 0.247; NOISeq theta enrichment statistic [2]: 0.808
# C150R is listed as log2 fold change of mutant abundance [1]: -0.0975; NOISeq theta enrichment statistic [2]: -0.266
# I151D is listed as log2 fold change of mutant abundance [1]: 0.409; NOISeq theta enrichment statistic [2]: 0.186
# C150W is listed as log2 fold change of mutant abundance [1]: -0.278; NOISeq theta enrichment statistic [2]: -0.304

# (cont.)

Variant,log2 fold change of mutant abundance [1],NOISeq theta enrichment statistic [2]
S152N,0.238,0.692
S152Q,-0.0489,-0.0327
S152R,0.0445,0.206
S152T,-0.333,-0.395
S152V,-0.566,-0.333
S152Y,-0.384,-0.182
Q153E,0.064,0.0794
Q153H,0.236,1.23
Q153I,-1.1,-0.561
Q153K,-0.256,-0.497
Q153L,-0.637,-1.49
Q153N,0.443,0.196
Q153P,-0.361,-0.413
Q153R,-0.345,-1.16
Q153S,0.279,0.229
Q153Y,-0.957,-0.449
V154A,-0.594,-1.7
V154E,-0.92,-1.42
V154G,-0.751,-0.95
V154I,0.449,0.265
V154L,0.171,0.42
V154M,-0.0295,-0.0744
V154R,-0.216,-0.143
V154S,0.0392,0.0277

Variant,log2 fold change of mutant abundance [1],NOISeq theta enrichment statistic [2]
S155C,0.0557,0.315
S155D,-0.0242,-0.0154
S155E,0.244,0.145
S155G,-0.369,-1.19
S155I,0.0328,0.0476
S155K,-0.825,-0.504
S155N,-0.256,-0.708
S155R,-5.39e-05,-0.000304
S155T,0.355,0.52
S155V,-0.702,-0.478
S155W,-0.499,-0.211
S155Y,0.195,0.106
S156A,0.135,0.206
S156C,-0.00443,-0.0047
S156F,-0.47,-0.737
S156L,-0.296,-0.156
S156N,-0.825,-0.346
S156P,-0.477,-0.719
S156T,-0.0835,-0.32
S156Y,-0.219,-0.399
I157D,0.244,0.13
I157F,-0.549,-1.1
I157K,0.187,0.096
I157L,-0.198,-0.249

Variant,log2 fold change of mutant abundance [1],NOISeq theta enrichment statistic [2]
I157M,-0.0853,-0.139
I157N,0.00138,0.00431
I157R,0.227,0.127
I157S,0.208,0.341
I157T,-0.0363,-0.0984
I157V,0.241,0.804
I157Y,-0.0665,-0.0495
H158C,-0.264,-0.142
H158D,-0.664,-0.711
H158I,0.0963,0.0588
H158K,-0.376,-0.185
H158L,-0.322,-0.847
H158N,-0.227,-0.576
H158P,0.111,0.15
H158Q,-0.394,-0.785
H158R,-0.377,-1.05
H158S,0.084,0.0568
H158T,-0.518,-0.317
H158Y,-0.229,-0.584
A159D,0.00747,0.00505
A159E,0.239,0.349
A159G,-0.266,-0.33
A159I,-0.72,-0.379
A159P,-0.0361,-0.0321

Variant,log2 fold change of mutant abundance [1],NOISeq theta enrichment statistic [2]
A159R,0.0801,0.0661
A159S,-0.0288,-0.0537
A159T,0.144,0.608
A159V,0.326,0.687
I160F,0.0288,0.0811
I160H,0.381,0.173
I160L,-0.129,-0.184
I160M,-0.123,-0.139
I160N,0.302,0.551
I160S,0.154,0.184
I160T,0.184,0.35
I160V,-0.259,-0.839
I160Y,-0.189,-0.139
G161A,0.299,0.384
G161C,-0.00641,-0.0126
G161D,0.106,0.155
G161R,0.163,0.152
G161S,0.182,0.364
G161V,0.41,0.372
S162C,-0.0699,-0.157
S162G,0.0683,0.166
S162I,0.111,0.141
S162K,0.104,0.0903
S162N,-0.0403,-0.0894

Variant,log2 fold change of mutant abundance [1],NOISeq theta enrichment statistic [2]
S162R,-0.299,-0.655
S162T,-0.328,-0.332
S162W,0.11,0.11
I163F,0.135,0.309
I163L,0.159,0.16
I163M,-0.0674,-0.0712
I163N,-0.16,-0.323
I163S,-0.203,-0.212
I163T,-0.121,-0.218
I163V,0.191,0.546
I163Y,-0.215,-0.157
K164D,-0.257,-0.134
K164E,0.00882,0.02
K164G,-1.33,-0.576
K164I,0.0154,0.0393
K164L,1.04,0.52
K164M,0.322,0.109
K164N,-0.172,-0.414
K164Q,-0.023,-0.0432
K164R,0.0646,0.24
K164S,0.749,0.358
K164T,0.277,0.487
K164V,-0.504,-0.217
K164Y,0.547,0.395

Variant,log2 fold change of mutant abundance [1],NOISeq theta enrichment statistic [2]
E165A,-0.0873,-0.0757
E165D,0.0518,0.149
E165G,-0.637,-0.943
E165K,-0.492,-0.481
E165Q,-0.144,-0.154
E165R,0.0386,0.0231
E165V,-0.126,-0.192
D166A,-0.286,-0.235
D166E,-0.318,-0.626
D166G,-0.374,-0.402
D166H,-0.544,-0.448
D166K,-0.151,-0.102
D166N,-0.199,-0.214
D166R,0.112,0.0636
D166V,-0.114,-0.249
